Test results from PubChem BioAssay (NCATS).
This list was built around the results that the source calls inconclusive (neither active nor inactive); the mix of calls is not that of the screen. Potencies of inconclusive entries are doubtful fits and often do not repeat. The source made the active and inactive calls. Calls follow the shape of the dose curve; as a rule, active = well fitted cell-killing curve with a large enough effect; inconclusive = small, poorly fitted or top-dose-only effect, or effect the other way; inactive = no such curve, though single readings can be large or run the other way.

Experiment: Quantitative High-Throughput drug screen in 47 multiple myeloma cell lines against the NCATS MIPE library collection: JJN3_DSMZ cell viability assay (AID 1918966; also: nearly all actives have a fitted effect of over 50% in size)
Details: JJN3 myeloma cells viability, CellTiter-Glo ATP, 48 h; series mostly up to 45.8 µM; viability, % of DMSO: at the top concentration
Procedure, shortened: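 Viability readout: CellTiter-Glo luminescence following 5 min room-temperature incubation with reagent. Prior exposure: 48 h, 37C, humidified 5% CO2, 500 cells per well.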
Potency is read from the fitted curve at half-maximal effect.

Row | SMILES | Potency | viability, % of DMSO
1 | COc1ccc(OC)c(-c2nnc3ccc(-c4ccc(OC)c(O[C@@H]5CCOC5)c4)nn23)c1 | active: 16.6 µM | –
2 | CC(C)(Sc1ccc(CCN(CCCCC2CCCCC2)C(=O)NC2CCCCC2)cc1)C(=O)O | active: 18.7 µM | –
3 | O=C(O)c1ccc(O)c2ncc(N3CCOCC3)cc12 | inconclusive: 29.6 µM [cytotoxic, partial curve, poor fit] | –
4 | COc1cc(-c2nn(C3CCC(N4CCN(C(C)=O)CC4)CC3)c3ncnc(N)c23)ccc1NC(=O)c1cc2ccccc2n1C (stereo not drawn) | active: 7.43 µM | –
5 | N#CC(=C(N)Sc1ccc(N)cc1)c1ccccc1C(F)(F)F | inconclusive: 20.9 µM [cytotoxic, partial curve, poor fit] | –
6 | CCNC(=O)Nc1ccc(Oc2ncnc(N)c2C=NOC)cc1Cl | inconclusive: 33.2 µM [cytotoxic, partial curve, poor fit] | –
7 | c1ccc([C@H]2CN3CCSC3=N2)cc1 | inconclusive: 2.96 µM [rising, partial curve, poor fit] | –
8 | COc1cc(OC2CCN(C)CC2)ccc1Nc1ncc2c(n1)n(C1CCCC1)c(=O)n2C | inconclusive: 14.8 µM [cytotoxic, partial curve, poor fit] | –
9 | Cc1cc(OCCCS(C)(=O)=O)cc(C)c1-c1cccc(COc2ccc3c(c2)OC[C@H]3CC(=O)O)c1 | active: 11.8 µM | –
10 | CC1CNc2c(cccc2S(=O)(=O)N[C@@H](CCCN=C(N)N)C(=O)N2CC[C@@H](C)C[C@@H]2C(=O)O)C1 (stereo partly drawn) | – | inactive: 144%
11 | CN(C)CCN1C(=O)c2cccc3cc(N)cc(c23)C1=O | active: 20.9 µM | –
12 | C1=CCOCc2cc(ccc2OCCN2CCCC2)Nc2nccc(n2)-c2cccc(c2)OCC1 | active: 4.18 µM | –
13 | O=C1CCC(N2C(=O)c3ccccc3C2=O)C(=O)N1 (stereo not drawn) | inconclusive: 14.8 µM [cytotoxic, partial curve, poor fit] | –
14 | O=S(=O)(NCCNCC=Cc1ccc(Br)cc1)c1cccc2cnccc12 | active: 16.6 µM | –
15 | Cc1cccc(N(C)C(=S)Oc2ccc3ccccc3c2)c1 | – | inactive: 123%
16 | C[C@]12CCC(=O)C=C1CC[C@@H]1[C@H]2[C@@H](O)C[C@@]2(C)[C@H]1CC[C@]2(O)C(=O)CO | inconclusive: 0.0296 µM [rising, full curve, poor fit] | –
17 | NCCCC(N)(C(=O)O)C(F)F (stereo not drawn) | active: 20.9 µM | –
18 | CC(=O)NCCC(=O)N[C@@H](CCC(N)=O)C(=O)N[C@@H](CO)C(=O)N[C@@H](CCC(N)=O)C(=O)N[C@@H](CCC(N)=O)C(=O)N[C@H](C(=O)N[C@@H](Cc1ccccc1)C(=O)N[C@]1(C)CCCCCCC=CCCC[C@@](C)(C(=O)N[C@@H](CCC(N)=O)C(=O)N[C@@H](CC(N)=O)C(N)=O)NC(=O)[C@H](CC(C)C)NC(=O)[C@H](CC(C)C)NC(=O)[C@@H](CCCNC(=N)N)NC(=O)[C@H](Cc2c[nH]c3ccccc23)NC(=O)[C@H](CC(C)C)NC(=O)[C@H](CC(N)=O)NC1=O)[C@H](C)O | active: 14.8 µM | –
19 | O=c1c(O)c(-c2ccc(O)cc2O)oc2cc(O)cc(O)c12 | inconclusive: 0.0235 µM [cytotoxic, full curve, poor fit] | –
20 | CN(C)c1nc(Cc2ccc(NC(=O)c3ccc4ccccc4c3)cc2)nc(Cl)c1CC(=O)O | inconclusive: 0.0372 µM [cytotoxic, full curve, poor fit] | –
21 | Cc1c(C(=O)NN2CCCCC2)nn(-c2ccc(Cl)cc2Cl)c1-c1ccc(Cl)cc1 | active: 20.9 µM | –
22 | NC(=O)c1cnccn1 | – | inactive: 154%
23 | O=c1[nH]nc(OCCCc2ccc(Cl)cc2)c(NCc2cccnc2)c1Br | active: 20.9 µM | –

Record cards, as listed above. Values in the order: Potency | viability, % of DMSO
CC(=O)NCCC(=O)N[C@@H](CCC(N)=O)C(=O)N[C@@H](CO)C(=O)N[C@@H](CCC(N)=O)C(=O)N[C@@H](CCC(N)=O)C(=O)N[C@H](C(=O)N[C@@H](Cc1ccccc1)C(=O)N[C@]1(C)CCCCCCC=CCCC[C@@](C)(C(=O)N[C@@H](CCC(N)=O)C(=O)N[C@@H](CC(N)=O)C(N)=O)NC(=O)[C@H](CC(C)C)NC(=O)[C@H](CC(C)C)NC(=O)[C@@H](CCCNC(=N)N)NC(=O)[C@H](Cc2c[nH]c3ccccc23)NC(=O)[C@H](CC(C)C)NC(=O)[C@H](CC(N)=O)NC1=O)[C@H](C)O is listed with active: 14.8 µM | –
O=S(=O)(NCCNCC=Cc1ccc(Br)cc1)c1cccc2cnccc12 is listed with active: 16.6 µM | –
